Construct, isoform or probe ends are uncertain for at least one entry. For part of these data: A weaker result is weaker than the reference pair of the same experiment. At least one verdict rests on a figure or table, not on a statement of the authors.
Experiments:
[1] = system: SIM1 + ARNT2 (SIM1 partner); test: EMSA
[2] = system: NPAS4 + ARNT2 (NPAS4 partner); test: EMSA

Sequence | binding result [1] | binding result [2]
AATGGGTACGTGCCAAATTGAA (double strand) [H2RE] | binds more weakly | –
AGGCTGCGTACGTGCGGGTCGT (double strand) [HRE (C/C)] | binds | –
TGATTCTGGTAATTCGTGCACTAGAGTGTC (double strand) [BDNF IV NPAS4 response element (C/C)] | – | binds

Reference: doi:10.1101/2022.02.01.475276
